Article PMC3602653, “The brain slice method for studying drug distribution in the CNS” (Fluids and Barriers of the CNS, 2013)
Where two headings read alike, the source gives them in different places.

Assays:
[1] = Brain slice method, unbound volume of distribution in the brain (rat); assay type: in vitro ADME; settings: SD rat brain slices, 5 h incubation at 37°C; mean (standard deviation)
[2] = NMRI, mouse

What does the source list for `CN1C(=O)CN=C(c2ccccc2)c2cc(Cl)ccc21` [Diazepam]?
Vu,brain [1]: 17.8 (1.1) ml·g brain^-1; Vu,brain [2]: 17.1 (2.3) ml·g brain^-1
